Structures are written as SMILES.

The results in this text go back to US5639904A, “1-aryloxy-3-alkylamino-2-propanol nitrate esters, the use thereof and corresponding pharmaceutical composition” (Prodesfarma, S.A., priority 1993, dated 1997).

The test system of assay [1] is helical strips of swine coronary artery (potassium-induced contraction). Nature of the assay: In vitro coronary vasodilator activity: antagonism of contractions induced by potassium (35 mM). It is filed as cell-based. Conditions: Sus scrofa, read-out: inhibitory concentration 50 (IC50), effect on K+-induced contractions in swine coronary artery. The procedure:
(§1) The coronary vasodilator activity of the synthesized products was determined in vitro from their capacity to antagonize the contractions induced by a) potassium (35 mM) b) calcium (1.5 mM) and c) serotonin (1 mM) in helical strips of swine coronary artery, using Nitroglycerine and Nicorandil as reference drugs (Table 1).
(§2) IN VITRO CORONARY VASODILATING ACTIVITY
(§3) Activity expressed as inhibitory concentration 50 (IC50) en μM
(§4) Effect on concentrations in swine coronary artery

In assay [2] the test system is helical strips of swine coronary artery (calcium-induced contraction). The assay can be described thus: In vitro coronary vasodilator activity: antagonism of contractions induced by calcium (1.5 mM). The class given is cell-based. As to conditions: Sus scrofa, read-out: inhibitory concentration 50 (IC50), effect on Ca2+-induced contractions in swine coronary artery. As to the method:
as §1, §2, §3, §4

Consider `CC(C)NCC(O)COc1cccc2ccccc12` (centres unmarked) [Propranolol, reference compound], for which the values for the IC50 in assay [1] and in assay [2] were 98.6 µM and 72.4 µM, respectively.
